Results reported in PubChem BioAssay AID270 (DTP/NCI, 2004).
The list is a part of this screen's results and no random one: it is rich in T/C values a quarter to a half above the control, in often repeated tests (any T/C) and in doses without a T/C. Further doses and runs are listed elsewhere. T/C gives the treated animals as a percentage of the vehicle group. Some entries give survivors of the animals treated and no T/C: the source files T/C as zero there, which appears to mark a toxic dose or a test without result, not a measured value. Some survivor counts are full or nearly so, which does not show that the dose was tolerated: the source hardly ever lists a survival T/C far under the control, and the zero likely stands for such cases as well. Survivors were counted at the toxicity check, usually on the fifth day, unless a day is given; later deaths do not show. Schedules are NCI's codes, taken here to give the interval after Q, in days (D) or hours (H), and the number of doses after X. Where survival is the endpoint, the PubChem record calls one and a half times the control and up active, and a quarter to a half above the control has no call in these data; cut-offs in other NCI protocols can differ. Some T/C values carry the count of animals alive at the toxicity check (mostly the fifth day); where none is given, no animal had died by that day.

Tested on: BDF1 mice, s.c. Lewis lung carcinoma, T/C %
Experiment: NCI In Vivo Anticancer Drug Screen. Data for tumor model Lewis Lung Carcinoma (subcutaneous) in B6D2F1 (BDF1) mice
Outline: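 Transplanted tumors grown in mice; compound vs vehicle dosing; endpoint survival or tumor size; ratio T/C.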

[1] = T/C endpoint: median survival time, dose: 2.0 mg/kg/injection, schedule: Q01DX009 (ip), vehicle: Klucel (hydroxypropylcellulose) (HPC), higher T/C = longer survival
[2] = T/C endpoint: median survival time, dose: 4.0 mg/kg/injection, schedule: Q01DX009 (ip), vehicle: Klucel (hydroxypropylcellulose) (HPC), higher T/C = longer survival

SMILES: CO[C@@]12[C@H](COC(N)=O)C3=C(C(=O)C(C)=C(N)C3=O)N1C[C@@H]1N[C@@H]12
- survivor count (T/C endpoint: median survival time, dose: 1.0 mg/kg/injection, schedule: Q01DX009 (ip), vehicle: Klucel (hydroxypropylcellulose) (HPC), higher T/C = longer survival): 6 of 10
- survivor count [1]: 9 of 10
- survivor count (T/C endpoint: median survival time, dose: 2.0 mg/kg/injection, schedule: Q01DX009 (ip), vehicle: saline, higher T/C = longer survival): 10 of 10
- survivor count [2]: 9 of 10
- survivor count (T/C endpoint: median survival time, dose: 4.0 mg/kg/injection, schedule: Q01DX009 (ip), vehicle: saline, higher T/C = longer survival): 10 of 10

SMILES: CC(C)=CCC1=C(O)c2ccccc2C(=O)C1=O
- survivor count (T/C endpoint: mean tumor weight, dose: 150.0 mg/kg/injection, schedule: Q01DX011 (ip), vehicle: water, higher T/C = larger tumour): 3 of 6

SMILES: CC[C@H]1CN2CCc3cc(OC)c(OC)cc3[C@@H]2C[C@@H]1C[C@H]1NCCc2c1[nH]c1ccc(O)cc21
- survivor count [1]: 10 of 10
- survivor count [2]: 0 of 10

SMILES: CC(=O)OC1CC(OC2C(O)CC(OC3C(O)CC(OC4CCC5(C)C(CCC6C5CCC5(C)C(C7=CC(=O)OC7)CCC65O)C4)OC3C)OC2C)OC(C)C1OC1OC(CO)C(O)C(O)C1O (centres undefined)
- survivor count (T/C endpoint: mean tumor weight, dose: 10.0 mg/kg/injection, schedule: Q01DX011 (ip), vehicle: carboxymethylcellulose (CMC), higher T/C = larger tumour): 0 of 6
- survivor count (T/C endpoint: mean tumor weight, dose: 20.0 mg/kg/injection, schedule: Q01DX011 (ip), vehicle: carboxymethylcellulose (CMC), higher T/C = larger tumour): 0 of 6
- survivor count (T/C endpoint: mean tumor weight, dose: 40.0 mg/kg/injection, schedule: Q01DX011 (ip), vehicle: carboxymethylcellulose (CMC), higher T/C = larger tumour): 0 of 6

SMILES: NCCCOc1ccc([N+](=O)[O-])cc1Cl
- T/C (T/C endpoint: median survival time, dose: 12.5 mg/kg/injection, schedule: Q01DX009 (ip), vehicle: saline, higher T/C = longer survival): 136 % of control
- T/C (T/C endpoint: median survival time, dose: 25.0 mg/kg/injection, schedule: Q01DX009 (ip), vehicle: saline, higher T/C = longer survival): 146 % of control
- survivor count (T/C endpoint: median survival time, dose: 200.0 mg/kg/injection, schedule: Q01DX009 (ip), vehicle: saline, higher T/C = longer survival): 2 of 10

SMILES: CCC[CH2][Sn]1([CH2]CCC)[N](S(=O)(=O)c2ccc(C)cc2)c2ccccc2[N]1S(=O)(=O)c1ccc(C)cc1
- survivor count (T/C endpoint: median survival time, dose: 12.0 mg/kg/injection, schedule: Q01DX009 (ip), vehicle: Klucel (hydroxypropylcellulose) (HPC), higher T/C = longer survival): 10 of 10

SMILES: COc1cc(O)c2c(c1)Cc1cc(C)cc(O)c1C2=O
- T/C (T/C endpoint: median survival time, dose: 0.4 mg/kg/injection, schedule: Q01DX009 (ip), vehicle: saline with Tween-80, higher T/C = longer survival): 147 % of control
- T/C (T/C endpoint: median survival time, dose: 0.8 mg/kg/injection, schedule: Q01DX009 (ip), vehicle: saline with Tween-80, higher T/C = longer survival): 138 % of control
- T/C (T/C endpoint: median survival time, dose: 1.6 mg/kg/injection, schedule: Q01DX009 (ip), vehicle: saline with Tween-80, higher T/C = longer survival): 136 % of control
- T/C (T/C endpoint: median survival time, dose: 3.12 mg/kg/injection, schedule: Q01DX009 (ip), vehicle: saline with Tween-80, higher T/C = longer survival): 137 % of control

SMILES: CCCCOP(=S)(N1CC1)N1CC1
- survivor count (T/C endpoint: mean tumor weight, dose: 20.0 mg/kg/injection, schedule: Q01DX011 (ip), vehicle: saline, higher T/C = larger tumour): 1 of 6

SMILES: O=NN(CCCl)C(=O)Nc1cccc(O)c1
- T/C (T/C endpoint: median survival time, dose: 12.5 mg/kg/injection, schedule: Q01DX009 (ip), vehicle: Klucel (hydroxypropylcellulose) (HPC), higher T/C = longer survival): 130 % of control
- T/C (T/C endpoint: median survival time, dose: 50.0 mg/kg/injection, schedule: Q01DX009 (ip), vehicle: Klucel (hydroxypropylcellulose) (HPC), higher T/C = longer survival): 125 % of control [9 of 10 alive]
- survivor count (T/C endpoint: median survival time, dose: 100.0 mg/kg/injection, schedule: Q01DX009 (ip), vehicle: Klucel (hydroxypropylcellulose) (HPC), higher T/C = longer survival): 7 of 10

SMILES: CC(=N\O)/C(C)=N/O.CC(=N\O)/C(C)=N/O.[Pd]
- survivor count (T/C endpoint: median survival time, dose: 3.13 mg/kg/injection, schedule: Q01DX009 (ip), vehicle: Klucel (hydroxypropylcellulose) (HPC), higher T/C = longer survival): 10 of 10
- survivor count (T/C endpoint: median survival time, dose: 6.25 mg/kg/injection, schedule: Q01DX009 (ip), vehicle: Klucel (hydroxypropylcellulose) (HPC), higher T/C = longer survival): 10 of 10

SMILES: COC(=O)c1ccccc1NC(c1ccccn1)c1ccc2cccnc2c1O (centres undefined)
- survivor count (T/C endpoint: mean tumor weight, dose: 100.0 mg/kg/injection, schedule: Q01DX011 (ip), vehicle: other, higher T/C = larger tumour): 0 of 6
- survivor count (T/C endpoint: mean tumor weight, dose: 200.0 mg/kg/injection, schedule: Q01DX011 (ip), vehicle: other, higher T/C = larger tumour): 0 of 6
- survivor count (T/C endpoint: mean tumor weight, dose: 400.0 mg/kg/injection, schedule: Q01DX011 (ip), vehicle: other, higher T/C = larger tumour): 0 of 6
- survivor count (T/C endpoint: mean tumor weight, dose: 800.0 mg/kg/injection, schedule: Q01DX011 (ip), vehicle: other, higher T/C = larger tumour): 0 of 6
